From PubChem BioAssay AID2685 (National Center for Advancing Translational Sciences (NCATS), 2010) come the findings set out here.

Some of the results follow. The main result of the screen is listed elsewhere. These columns were measured beside it and carry no call. The list favours compounds with an active or inconclusive main result. Potencies come from curve fits of mixed quality, noted in brackets.

The assay is described as follows: qHTS Assay for Lipid Storage Modulators in Drosophila S3 Cells.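 For cell number change: cells counted by Cell Tracker Red CMTPX staining in the red channel.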 As to conditions: BODIPY lipid droplet fluorescence, 18-24 h; for cell number change: measured here: cell count max response, cells fed with added oleic acid. Summed up:
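Drosophila S3 cells loaded with oleic acid (400 uM, as added) and compounds at several concentrations; lipid droplets imaged by 488-nm laser-scanning cytometry, 500–530 nm intensity and object ratio to cell channel. Percent activity normalized to 20 uM Triacsin C.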
On the technique in general: qHTS replaces the single test concentration by a dilution series.

Setting [1] is: measured here: lipid fluorescence (Fed channel) AC50, cells fed with added oleic acid.
Where [2] appears, read: measured here: cell number channel AC50, cells fed with added oleic acid.

Consider `COc1ccc(-c2nnnn2C(C)C)cc1`, for which the cell number change came to 13.3%.
A word on the AC50: it is the midpoint of the concentration-response curve, whichever way the signal moves. A higher AC50 goes with weaker potency. For `O=C(COC(=O)c1ccc(N2CCCC2=O)cc1)c1ccc(OC(F)F)cc1`, the cell number change worked out at 0.451%. Besides, under setting [1], the AC50 is 29.1 µM [falling, single point].
As for `Cc1nn(-c2ccccc2)c(N2CCCC2)c1/C=N/Nc1ccc(S(N)(=O)=O)cc1[N+](=O)[O-]`, the cell number change was -16.2%. Besides, the AC50 under setting [1] is 1.84 µM [falling, partial curve].
With `CCSc1nc2c(c(=O)[nH]c(=O)n2C)n1C`, the cell number change is -9.12%. In addition, under setting [1], the AC50 was 29.1 µM [falling, single point].
`Cc1ccc(C)c(Nc2ncnc3nc[nH]c23)c1`: the cell number change came out at 54.9%. Further, under setting [2], the AC50 is 9.2 µM [rising, partial curve].
As for `O=C(NNC(=O)C1CCCO1)c1ccc(F)cc1` (stereo unspecified), the cell number change stood at 4.44%. Moreover, the AC50 under setting [2] was 4.11 µM [falling, partial curve, poor fit]. Under setting [1], the AC50 was 4.11 µM [falling, single point].
Regarding `CC(=O)Nc1cccc(C(=O)/C=C/c2ccc(C)cc2)c1`, the cell number change is -11.5%.
With `Cc1ccc(NC(=O)C2CCCN(S(=O)(=O)c3cccc4nonc34)C2)cc1` (stereo unspecified), the cell number change came out at 455%. Besides, under setting [2], the AC50 was 18.4 µM [rising, partial curve].
For the compound `CCC(=O)NCCc1nc2ccccc2[nH]1`, the cell number change is -21.2%. Besides, under setting [2], the AC50 is 0.00461 µM [falling, full curve, poor fit].
For the compound `COc1cc2c(cc1OC)C(C(=O)NCc1ccco1)C1c3ccccc3CCN1C2=O` (stereo unspecified), the cell number change is -14.4%.
As to `CC1CCC2C(=O)N(c3ccc(NC4CCCCC4)c([N+](=O)[O-])c3)C(=O)C2C1` (stereo unspecified), the cell number change was -64%. Further, the AC50 under setting [2] is 25.9 µM [falling, single point].
Turning to `CCOc1ccc(N2C(=O)Nc3ccc(Br)cc3C2(O)C(=O)NCCCN(C)C)cc1` (stereo unspecified), under setting [1], the half-maximal activity concentration (AC50) is 0.651 µM [falling, single point].
On to `Cc1ccnc(NC(=O)c2ccc(S(=O)(=O)N3CCCCCC3)cc2)c1`, for which the cell number change was found to be 12.7%. In addition, the AC50 under setting [1] was 6.51 µM [rising, single point].
Turning to `Cc1ccccc1N/N=C/c1c(C)nc2ccccn12`, the cell number change turned out to be 12.6%.
As to `COCCNC(=O)c1cc2c(=O)n3cccc(C)c3nc2n1C`, the AC50 was 6.51 µM [falling, single point] under setting [2] and 1.3 µM [falling, full curve] under setting [1].
As to `CC(=O)Nc1nc(C)c(Oc2ccccc2)c(=O)[nH]1`, the cell number change worked out at 0.0714%.
Take `CC1(C)SC(=S)N(c2ccccc2)C1/[N+]([O-])=C/c1cccc([N+](=O)[O-])c1` (stereo unspecified): the cell number change is -27.5%. The half-maximal activity concentration (AC50) under setting [1] was 29.1 µM [falling, single point].
Regarding `CCCCCOC(=O)CSc1n[nH]c(=O)[nH]c1=O`, the cell number change is -22.8%. Also, the half-maximal activity concentration (AC50) under setting [1] was 29.1 µM [falling, single point].
Regarding `O=C(Cc1csc(NC(=O)Nc2ccc(Cl)cc2)n1)NCc1cccnc1`, under setting [2], the half-maximal activity concentration (AC50) was 0.461 µM [rising, full curve, poor fit].
Consider `Nc1nc(N2CCN(C/C=C/c3ccccc3)CC2)nc2ccccc12`, for which, under setting [1], the AC50 is 3.26 µM [rising, partial curve, poor fit].
Take `CCCCOc1ccc(S(=O)(=O)NCc2csc(C)n2)cc1`: the cell number change is 127%. In addition, the AC50 under setting [1] is 6.51 µM [falling, single point].
With `CCOC(=O)C1(Cc2ccccc2)CCN(C2Cc3ccccc3C2)CC1`, the cell number change is -6.56%. Under setting [2], the concentration at half-maximal activity (AC50) is 0.13 µM [falling, full curve, poor fit].
With `O=C(CN1CCN(Cc2ccccc2)CC1)Nc1cccc(Cl)c1`, the cell number change is -19.3%. In addition, the concentration at half-maximal activity (AC50) under setting [1] is 4.11 µM [falling, full curve, poor fit].
For the compound `O=C(NC(=S)Nc1ccc2c(c1)OCCO2)c1ccc(F)cc1Cl`, the AC50 under setting [1] was 11.6 µM [rising, partial curve, poor fit].
Regarding `O=C(NC1CCCc2ccccc21)c1ccc(F)cc1F` (stereo unspecified), the cell number change was -9.52%. Further, under setting [1], the half-maximal activity concentration (AC50) was 29.1 µM [rising, single point].
For the compound `COc1ccc(CCNC(=O)CSc2nnc(-c3ccc(F)cc3)c3ccccc23)cc1OC`, the cell number change was -85.4%. Moreover, under setting [2], the half-maximal activity concentration (AC50) is 4.11 µM [falling, full curve]. The half-maximal activity concentration (AC50) under setting [1] was 2.06 µM [falling, full curve].
Turning to `COc1ccc2c(Cl)c(C(=O)NCCCn3ccnc3)sc2c1`, the cell number change came out at 3.79%. Moreover, the concentration at half-maximal activity (AC50) under setting [1] is 0.82 µM [rising, full curve].
As to `Cc1ccc(S(=O)(=O)Nc2ccccc2/C=N/c2nc3ccccc3n2C)cc1`, the cell number change was -0.707%. Also, the AC50 under setting [1] is 29.1 µM [rising, single point].
On to `O=C(COC(=O)Cc1cccc(C(F)(F)F)c1)Nc1cccc2ccccc12`, for which the cell number change turned out to be 8.71%. Moreover, under setting [1], the concentration at half-maximal activity (AC50) was 4.11 µM [rising, single point].
Turning to `Cc1cc(S(=O)(=O)N2CCOCC2)ccc1OCC(=O)N1CCC(C)CC1`, the cell number change is -32.5%. Further, the AC50 under setting [2] is 1.03 µM [falling, full curve, poor fit].
As for `CSCCC(NC(=O)c1ccc(Cl)cc1)C(=O)OCC(=O)Nc1cc(Cl)ccc1C#N` (stereo unspecified), the cell number change was -30.9%. Besides, the concentration at half-maximal activity (AC50) under setting [2] is 0.291 µM [falling, full curve, poor fit]. The AC50 under setting [1] was 0.82 µM [falling, full curve].
For the compound `O=C(Nc1nccs1)c1cc(-c2ccccc2)nn1-c1ccccc1`, the cell number change is -18.4%. For the same compound, the half-maximal activity concentration (AC50) under setting [2] is 4.61 µM [falling, partial curve].
Consider `CCN(CC)S(=O)(=O)c1ccc2c(c1)nc(SCC(=O)NCC1CCCO1)n2CC` (stereo unspecified), for which the cell number change is 12.8%. Also, the concentration at half-maximal activity (AC50) under setting [1] was 32.6 µM [rising, single point].
As for `CC(C)(C)C(=O)NC(n1cnc2c(N3CCOCC3)ncnc21)C(Cl)(Cl)Cl` (stereo unspecified), the cell number change was -26.4%. For the same compound, under setting [1], the AC50 was 18.4 µM [falling, single point].
As for `O=[N+]([O-])c1ccc(N/N=C/c2cccnc2)cc1`, the cell number change is -2.46%. In addition, under setting [1], the AC50 was 16.4 µM [falling, single point].
Take `Cc1cc(=O)n2c(ccc3ccccc32)c1C#N`: the cell number change is 3.69%.
In the case of `CCOC(=O)Cc1csc(NC(=O)c2ccc3ccccc3n2)n1`, the cell number change turned out to be 30.8%. Further, the AC50 under setting [2] is 11.6 µM [rising, partial curve, poor fit].
`CCOc1ccc(-c2nnc(SCC(=O)N(CC)CC)n2N)cc1`: the cell number change came out at 13.2%. Also, the AC50 under setting [1] was 1.3 µM [rising, partial curve, poor fit].
As to `O=C(c1ccccc1)N1CCN(C(=O)c2ccc3c(c2)OCCO3)CC1`, the cell number change was -30.1%.
For `COc1ccccc1NC(=O)Cn1c(=O)sc2ccccc21`, the cell number change was -1.92%. The AC50 under setting [1] is 5.17 µM [falling, single point].
Regarding `COc1ccc(CNC(=O)C(=O)NCC2OCCN2S(=O)(=O)c2ccc3c(c2)OCCO3)cc1` (stereo unspecified), the cell number change stood at 30%. The AC50 under setting [1] was 2.31 µM [rising, full curve, poor fit].
As to `CCOc1cc(Br)c(C(=O)O)cc1OCC`, the cell number change is -17.1%. Under setting [1], the concentration at half-maximal activity (AC50) was 32.6 µM [falling, partial curve, poor fit].
Take `Cc1ccc(NC(=O)/C(=C/c2cccc([N+](=O)[O-])c2)NC(=O)C2CCCCC2)cc1`: the AC50 under setting [1] was 1.64 µM [rising, partial curve].
Turning to `CCCOC(=O)NC(CC)COC(=O)Nc1cc(C)ccc1C` (stereo unspecified), the cell number change was -17.8%. Also, under setting [1], the AC50 is 0.366 µM [rising, full curve, poor fit].
In the case of `CC(C)C(NC(=O)c1ccccc1F)C(=O)NCCc1ccccn1` (stereo unspecified), the cell number change is 24.3%. Under setting [2], the AC50 is 3.66 µM [rising, full curve, poor fit]. For the same compound, the concentration at half-maximal activity (AC50) under setting [1] is 7.31 µM [rising, partial curve].
Consider `O=C(NCCCN1CCOCC1)c1ccc2c(c1)N(Cc1ccc(F)cc1)CCS2`, for which the cell number change stood at 31.2%. Besides, under setting [2], the concentration at half-maximal activity (AC50) is 32.6 µM [rising, single point]. Further, the concentration at half-maximal activity (AC50) under setting [1] is 2.31 µM [rising, partial curve].
As to `COc1ccc(C(=O)Nc2c(C)csc2C(=O)O)cc1`, the cell number change was 39.4%. Further, under setting [2], the half-maximal activity concentration (AC50) is 14.6 µM [rising, partial curve, poor fit]. In addition, under setting [1], the AC50 is 16.4 µM [rising, partial curve].
Turning to `CC(C)(C)NC(=O)C(c1ccc(O)cc1)N(C(=O)CCC(=O)Nc1ccccn1)c1ccc(F)cc1` (stereo unspecified), the cell number change is 6.09%. Besides, under setting [2], the half-maximal activity concentration (AC50) is 1.64 µM [rising, partial curve, poor fit].
On to `CCCOc1ccccc1-c1nc2c([nH]1)c(=O)[nH]c(=O)n2C`, for which the cell number change came out at 4.53%. Moreover, the half-maximal activity concentration (AC50) under setting [1] is 1.16 µM [rising, partial curve].
As for `CNC(=O)N(O)C1N(/N=C/c2cccs2)C(=S)SC1(C)C` (stereo unspecified), the cell number change amounted to 7.44%. The half-maximal activity concentration (AC50) under setting [2] is 0.146 µM [falling, full curve, poor fit]. Further, the AC50 under setting [1] is 0.103 µM [falling, full curve, poor fit].
For `CCC(C)[C@H](NC(=O)C1CCC(CNC(=O)[C@@H]2CCCN2C(=O)OC(C)(C)C)CC1)C(=O)O` (stereo partly specified), the cell number change was found to be 7.8%. Also, the half-maximal activity concentration (AC50) under setting [2] was 6.51 µM [rising, single point].
Take `Cc1ccc(-n2c(SCC(N)=O)nnc2-c2ccccn2)cc1C`: the cell number change is 23%. The AC50 under setting [2] was 0.58 µM [falling, single point]. In addition, the AC50 under setting [1] is 0.651 µM [falling, partial curve].
Turning to `O=C(O)C[C@@H](O)C(=O)O`, the cell number change is -1.14%. Moreover, the AC50 under setting [1] is 0.92 µM [falling, full curve, poor fit].
Regarding `CC(C)c1ccc(NC(=O)[C@@H](C)NC(=O)[C@@H]2Cc3ccccc3CN2)cc1`, the cell number change was -15.8%.
On to `Cc1cc(N2CCCCC2)nc(-c2ccc(Br)cc2)n1`, for which the cell number change was 44.9%. For the same compound, the half-maximal activity concentration (AC50) under setting [2] is 20.6 µM [rising, single point]. Moreover, the AC50 under setting [1] was 16.4 µM [rising, single point].
Regarding `Cc1ccccc1NS(=O)(=O)c1nnc(NC(=O)c2ccccc2F)s1`, the cell number change was 2.59%. Also, the concentration at half-maximal activity (AC50) under setting [1] is 6.51 µM [rising, single point].
Consider `Cc1ccccc1NC1=C(Cl)C(=O)N(C2CCCCC2)C1=O`, for which the cell number change is -15.7%.
With `Cc1onc(-c2ccccc2)c1C(=O)NCCN1CCOCC1`, the cell number change is -4.27%. For the same compound, the half-maximal activity concentration (AC50) under setting [1] was 0.13 µM [falling, full curve, poor fit].
`O=C(CSc1nnc(-c2ccccc2F)o1)N1CCNC1=O`: the cell number change was found to be 28.7%. Further, under setting [1], the AC50 was 0.146 µM [rising, full curve, poor fit].
As to `CC1CCN(C(=O)c2[nH]cnc2C(=O)Nc2cccc(Cl)c2)CC1`, the cell number change is -25.8%. Further, under setting [1], the AC50 is 0.00461 µM [falling, full curve, poor fit].
In the case of `CN1CCc2c(sc(NC(=O)Cc3ccccc3)c2C#N)C1`, the cell number change was 18.2%.
